Where a name gives a salt, the structure may show the parent alone. Some of the results follow. Baselines shift from plate to plate; read single values as rough.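 Smoothened with circularly permuted GFP in its cytoplasmic tail is carried by a clonal Drosophila S2 line; fluorescence appears when Hh-driven phosphorylation opens an inhibitory loop. Per-cell signal, read by flow cytometry, was scaled to Hh-stimulated untreated cells. Hits were consistent fluorescence-shifting groups of inhibitors sharing pathway targets, not single compounds.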
Tested on: Drosophila S2 cl14 SmoIP sensor cells
Test: normalized SmoIP GFP fluorescence (untreated unstimulated = 0%, untreated Hh-stimulated = 100%); higher = more Smo activation sensor fluorescence
Settings: compound concentration: 15 uM, 24 h
[1] = stimulation: Hh conditioned medium (+Hh)
[2] = stimulation: mock conditioned medium (-Hh)

Row | Structure (SMILES) | normalized SmoIP GFP fluorescence [1] [%] | normalized SmoIP GFP fluorescence [2] [%]
1 | Cc1cc(C)c2c(c1)[C@@H](N(Cc1cc(C(F)(F)F)cc(C(F)(F)F)c1)c1nnn(C)n1)CCCN2CC1CCC(C(=O)O)CC1 (stereo partly drawn) | 119 | 13.7
2 | COc1ncc(-c2ccc3nccc(-c4ccnnc4)c3c2)cc1NS(=O)(=O)c1ccc(F)cc1F | 29.9 | 16.7
3 | C[C@]12C=CC(=O)N[C@@H]1CC[C@@H]1[C@@H]2CC[C@]2(C)[C@@H](C(=O)Nc3cc(C(F)(F)F)ccc3C(F)(F)F)CC[C@@H]12 [Dutasteride] | 166 | 27.4
4 | Clc1ccc2c(c1)CCc1cccnc1C2=C1CCNCC1 [desloratadine] | 139 | 31
5 | COC1=C2C[C@@H](C)C[C@H](OC)[C@H](O)[C@@H](C)/C=C(\C)[C@H](OC(N)=O)[C@@H](OC)/C=C\C=C(/C)C(=O)NC(=CC1=O)C2=O [geldanamycin] | 147 | 86.1
6 | CC(C)C1CCC(C(=O)N[C@H](Cc2ccccc2)C(=O)O)CC1 (stereo partly drawn) [Nateglinide(Starlix)] | 132 | -15.4
7 | CC(C)n1c(/C=C/[C@@H](O)C[C@@H](O)CC(=O)O)c(-c2ccc(F)cc2)c2ccccc21 [Fluvastatin-Sodium(Lescol] | 113 | 16.1
8 | Cc1cc(Cl)ccc1OCCCC(=O)NO [Droxinostat] | 113 | 6.2
9 | O=C(Nc1ccccc1)N1CCN(c2nc(-c3ccccc3)ns2)CC1 | 120 | 25.8
10 | CC(C)c1nc(CN(C)C(=O)N[C@@H](CCN2CCOCC2)C(=O)N[C@H](CC[C@H](Cc2ccccc2)NC(=O)OCc2cncs2)Cc2ccccc2)cs1 [cobicistat-gs-9350] | 176 | 58.6
11 | Cc1c(NC(=O)OC[C@@H]2COCCN2)cn2ncnc(Nc3ccc4c(cnn4Cc4cccc(F)c4)c3)c12 | 71.5 | 81.3
12 | CCCCOc1c(C(=O)c2c(F)cc(C)cc2F)c[nH]c2nncc1-2 | 117 | 18.5
13 | Cc1c(C(=O)Nc2ccc(N3C[C@@H](C)O[C@@H](C)C3)nc2)cccc1-c1ccc(OC(F)(F)F)cc1 | 97.8 | 42.8
14 | C=C[C@@]1(C)CC(=O)[C@]2(O)[C@@]3(C)[C@@H](O)CCC(C)(C)[C@@H]3[C@H](O)[C@H](OC(C)=O)[C@@]2(C)O1 [forskolin] | 148 | 0.154
15 | O=C1NC(=O)C(=Cc2ccc(-c3ccc(F)cc3)o2)S1 (stereo in doubt) | 139 | 7.86
16 | CN1CCN(CCCN2c3ccccc3Sc3ccc(C(F)(F)F)cc32)CC1 [trifluoperazine-dihydrochloride] | 172 | 43
17 | CN(C)CCC[C@@]1(c2ccc(F)cc2)OCc2cc(C#N)ccc21 [escitalopram-oxalate] | 131 | 8.94
18 | COc1ccc(CNc2nc(N3CCC[C@H]3CO)ncc2C(=O)NCc2ncccn2)cc1Cl [avanafil] | 105 | 1.44
19 | COc1ccccc1OCCNCC(O)COc1cccc2[nH]c3ccccc3c12 (stereo not drawn) [carvedilol] | 149 | 33.4
20 | CC(C)N(C[C@H]1O[C@@H](n2cnc3c(N)ncnc32)[C@H](O)[C@@H]1O)[C@H]1C[C@@H](CCc2nc3cc(C(C)(C)C)ccc3[nH]2)C1 | 125 | 1.95
21 | O=C(Nc1c(Cl)cncc1Cl)c1ccc(OC(F)F)c(OCC2CC2)c1 [Roflumilast(Daxas)] | 140 | -15.6
22 | COC(=O)N[C@H](C(=O)N[C@@H](Cc1ccccc1)[C@@H](O)CN(Cc1ccc(-c2ccccn2)cc1)NC(=O)[C@@H](NC(=O)OC)C(C)(C)C)C(C)(C)C [Atazanavir] | 187 | 25.6
23 | Cc1ccc(NC(=O)C2(c3ccc4c(c3)OC(F)(F)O4)CC2)nc1-c1cccc(C(=O)O)c1 | 102 | 8.46
24 | CCCCOc1ccc(C(=O)Nc2ccc(F)cc2F)cc1 | 109 | 1.61
25 | Cc1ccc(C(=O)NCCCCCC(=O)Nc2ccccc2N)cc1 [rg2833-rgfp109] | 122 | 6.38
26 | Cc1cn([C@H]2C=C[C@@H](CO)O2)c(=O)[nH]c1=O [Stavudine] | 144 | 8.46
27 | Cc1cnc(-c2cc(N3CCN(C(=O)CCS(C)(=O)=O)CC3)ncc2Cl)c(C)c1 | 109 | 0.815
28 | CNC(=O)c1ccc(N2C(=S)N(c3ccc(C#N)c(C(F)(F)F)c3)C(=O)C2(C)C)cc1F | 133 | 94.6
29 | CC(C)(O)[C@H]1CC[C@@](C)([C@H]2[C@@H](O)C[C@@]3(C)[C@@H]4C[C@H](O[C@@H]5O[C@H](CO)[C@@H](O)[C@H](O)[C@H]5O)[C@H]5C(C)(C)[C@@H](O[C@@H]6OC[C@@H](O)[C@H](O)[C@H]6O)CC[C@@]56C[C@@]46CC[C@]23C)O1 [astragaloside-a] | 127 | -12.7

Pulled by compound from the entries so far:
Row | Structure (SMILES) | normalized SmoIP GFP fluorescence [1] [%] | normalized SmoIP GFP fluorescence [2] [%]
29 | CC(C)(O)[C@H]1CC[C@@](C)([C@H]2[C@@H](O)C[C@@]3(C)[C@@H]4C[C@H](O[C@@H]5O[C@H](CO)[C@@H](O)[C@H](O)[C@H]5O)[C@H]5C(C)(C)[C@@H](O[C@@H]6OC[C@@H](O)[C@H](O)[C@H]6O)CC[C@@]56C[C@@]46CC[C@]23C)O1 [astragaloside-a] | 127 | -12.7
22 | COC(=O)N[C@H](C(=O)N[C@@H](Cc1ccccc1)[C@@H](O)CN(Cc1ccc(-c2ccccn2)cc1)NC(=O)[C@@H](NC(=O)OC)C(C)(C)C)C(C)(C)C [Atazanavir] | 187 | 25.6

From the supplement of paper PMC5662767
